Among the data in publication PMC3470569 are binding values, retold here.

No constants are given. Whether binding was seen depends on the method and setting. Tags and fused reporters may be left off the sequences shown.

The target of test [1] is T1, A(205-224) (S. cerevisiae) (UniProt P17255).
T1 sequence (peptide, C-terminal end linked to cellulose): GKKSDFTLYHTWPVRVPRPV
Description: peptide or protein array; 20-mer peptides linked at their C-terminal end to cellulose and spotted in duplicate on glass slides; blocked in 2% nonfat milk; purified probe at 4 µM in TBS for 1 hour at 4°C; bound probe detected through MBP or FLAG with HRP-coupled antibody (chemiluminescence); hits by ANOVA (p 0.05, Bonferroni) and HCL in MeV, score of at least 1 in 75% of the spots; both purified.

The target of test [2] is T2, H(221-240) (S. cerevisiae) (UniProt P41807).
T2 sequence (peptide, C-terminal end linked to cellulose): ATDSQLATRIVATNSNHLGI
The test is described as above.

B1: full-length subunit H (Vma13p), N-terminal MBP fusion (protein, UniProt P41807 1-478)
chain: MGATKILMDSTHFNEIRSIIRSRSVAWDALARSEELSEIDASTAKALESILVKKNIGDGLSSSNNAHSGFKVNGKTLIPLIHLLSTSDNEDCKKSVQNLIAELLSSDKYGDDTVKFFQEDPKQLEQLFDVSLKGDFQTVLISGFNVVSLLVQNGLHNVKLVEKLLKNNNLINILQNIEQMDTCYVCIRLLQELAVIPEYRDVIWLHEKKFMPTLFKILQRATDSQLATRIVATNSNHLGIQLQYHSLLLIWLLTFNPVFANELVQKYLSDFLDLLKLVKITIKEKVSRLCISIILQCCSTRVKQHKKVIKQLLLLGNALPTVQSLSERKYSDEELRQDISNLKEILENEYQELTSFDEYVAELDSKLLCWSPPHVDNGFWSDNIDEFKKDNYKIFRQLIELLQAKVRNGDVNAKQEKIIIQVALNDITHVVELLPESIDVLDKTGGKADIMELLNHSDSRVKYEALKATQAIIGYTFK
For the molecule B1, the binding entry in test [1] and in test [2] was “no binding (tested: 4 µM)” throughout.
